Measured values as given in PMC8324870.
No constants are given. Whether binding was seen depends on the method and setting. Binding seen in cells or lysates may run through a third protein. Here binding means that the protein was enriched with, or labelled near, the bait; the list need not be complete. Values belong to the molecule of their own block, whether it stands above or below them.

Sequences of proteins named here, by UniProt entry; tags and fusion partners are left off.
UniProt Q99873: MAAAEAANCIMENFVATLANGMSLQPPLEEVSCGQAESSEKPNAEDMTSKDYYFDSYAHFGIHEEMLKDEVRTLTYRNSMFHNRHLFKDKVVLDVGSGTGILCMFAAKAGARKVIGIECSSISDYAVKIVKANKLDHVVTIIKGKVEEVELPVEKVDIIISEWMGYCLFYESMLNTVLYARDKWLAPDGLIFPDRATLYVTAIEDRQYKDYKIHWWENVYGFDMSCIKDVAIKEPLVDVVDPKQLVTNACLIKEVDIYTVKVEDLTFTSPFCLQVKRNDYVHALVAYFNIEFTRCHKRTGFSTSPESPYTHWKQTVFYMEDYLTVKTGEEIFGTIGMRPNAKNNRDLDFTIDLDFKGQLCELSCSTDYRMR
UniProt Q9NYF8: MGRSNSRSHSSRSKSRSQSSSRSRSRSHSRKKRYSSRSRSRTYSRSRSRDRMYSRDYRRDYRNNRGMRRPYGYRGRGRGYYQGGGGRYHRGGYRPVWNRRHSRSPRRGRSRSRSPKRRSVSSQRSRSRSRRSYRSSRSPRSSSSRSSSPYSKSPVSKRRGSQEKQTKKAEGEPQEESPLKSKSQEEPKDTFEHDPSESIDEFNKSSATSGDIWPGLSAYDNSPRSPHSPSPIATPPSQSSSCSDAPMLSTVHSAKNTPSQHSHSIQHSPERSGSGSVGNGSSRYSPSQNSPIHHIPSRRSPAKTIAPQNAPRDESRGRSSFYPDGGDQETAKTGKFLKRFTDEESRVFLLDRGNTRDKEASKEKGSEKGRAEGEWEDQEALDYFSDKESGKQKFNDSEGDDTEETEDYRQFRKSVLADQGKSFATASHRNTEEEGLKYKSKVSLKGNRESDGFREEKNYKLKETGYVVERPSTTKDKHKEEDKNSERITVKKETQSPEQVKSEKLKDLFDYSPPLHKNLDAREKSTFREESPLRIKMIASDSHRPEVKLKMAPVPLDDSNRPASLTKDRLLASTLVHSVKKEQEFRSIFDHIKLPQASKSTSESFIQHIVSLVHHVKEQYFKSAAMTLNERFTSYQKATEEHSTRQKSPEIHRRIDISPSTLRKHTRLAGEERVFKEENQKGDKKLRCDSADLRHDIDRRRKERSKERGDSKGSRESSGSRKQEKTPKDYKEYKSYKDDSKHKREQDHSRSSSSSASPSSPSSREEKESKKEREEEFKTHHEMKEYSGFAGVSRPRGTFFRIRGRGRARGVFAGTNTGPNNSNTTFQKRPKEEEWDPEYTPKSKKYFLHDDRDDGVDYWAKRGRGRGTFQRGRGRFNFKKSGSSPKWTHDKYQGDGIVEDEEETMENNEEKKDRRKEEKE

Molecular target: protein arginine methyltransferase 1 (PRMT1) (human (endogenous in PATC53)) (UniProt Q99873)
Assay: affinity purification with mass spectrometry; endogenous PRMT1 immunoprecipitated from PATC53 lysate (10 mM Tris-HCl pH 7.5, 150 mM NaCl, 1% Triton X-100, 5 mM EDTA) with anti-PRMT1 antibody on Protein A Dynabeads, 1 h at room temperature; IgG control; LC-MS/MS

- binding: binds
Molecule: BCLAF1 (from UniProt Q9NYF8 1-920)

- binding: binds
B1: THRAP3 (protein, UniProt Q9Y2W1 1-955)
chain: MSKTNKSKSGSRSSRSRSASRSRSRSFSKSRSRSRSLSRSRKRRLSSRSRSRSYSPAHNRERNHPRVYQNRDFRGHNRGYRRPYYFRGRNRGFYPWGQYNRGGYGNYRSNWQNYRQAYSPRRGRSRSRSPKRRSPSPRSRSHSRNSDKSSSDRSRRSSSSRSSSNHSRVESSKRKSAKEKKSSSKDSRPSQAAGDNQGDEAKEQTFSGGTSQDTKASESSKPWPDATYGTGSASRASAVSELSPRERSPALKSPLQSVVVRRRSPRPSPVPKPSPPLSSTSQMGSTLPSGAGYQSGTHQGQFDHGSGSLSPSKKSPVGKSPPSTGSTYGSSQKEESAASGGAAYTKRYLEEQKTENGKDKEQKQTNTDKEKIKEKGSFSDTGLGDGKMKSDSFAPKTDSEKPFRGSQSPKRYKLRDDFEKKMADFHKEEMDDQDKDKAKGRKESEFDDEPKFMSKVIGANKNQEEEKSGKWEGLVYAPPGKEKQRKTEELEEESFPERSKKEDRGKRSEGGHRGFVPEKNFRVTAYKAVQEKSSSPPPRKTSESRDKLGAKGDFPTGKSSFSITREAQVNVRMDSFDEDLARPSGLLAQERKLCRDLVHSNKKEQEFRSIFQHIQSAQSQRSPSELFAQHIVTIVHHVKEHHFGSSGMTLHERFTKYLKRGTEQEAAKNKKSPEIHRRIDISPSTFRKHGLAHDEMKSPREPGYKAEGKYKDDPVDLRLDIERRKKHKERDLKRGKSRESVDSRDSSHSRERSAEKTEKTHKGSKKQKKHRRARDRSRSSSSSSQSSHSYKAEEYTEETEEREESTTGFDKSRLGTKDFVGPSERGGGRARGTFQFRARGRGWGRGNYSGNNNNNSNNDFQKRNREEEWDPEYTPKSKKYYLHDDREGEGSDKWVSRGRGRGAFPRGRGRFMFRKSSTSPKWAHDKFSGEEGEIEDDESGTENREEKDNIQPTTE
